Values from PubChem BioAssay AID1259308 (NCATS, 2017)

- Screen: 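Knock-downs that increase output of a recombinant reporter protein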 (primary screen)
- Cell system: human HEK293 embryonic kidney cells stably expressing firefly luciferase (HEK-CMV-Luc2-Hygro)
- Reagent: single siRNA against human genes, 0.8 pmol siRNA per well
- Time to read-out: 72 h
- Detection: 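Reporter luminescence and viable-cell signal on separate replicate plates, given as percent of non-targeting control and median/MAD z-scores, plus per-cell luciferase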
- Direction: total luciferase, z-score and total luciferase, % of control: higher = more reporter protein produced; luciferase per cell, z-score: higher = more reporter output per viable cell; viable cells, % of control: higher = more viable cells
- Rule for the call: 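An siRNA counts as active if its total luciferase robust z-score exceeds 3; genes with two or more such siRNAs out of three were retested with fresh siRNAs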
- Calls: active = raised luciferase; inactive = no rise
This is an unselected part of about 59,000 reagents. Of all reagents, about 1,510 (2.6%) are marked active. 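Calls use total luciferase alone and ignore viability, so some active siRNAs may act by altering cell number.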 Reagents against one gene are numbered here.

gene,siRNA no.,"total luciferase, z-score","total luciferase, % of control","luciferase per cell, z-score","viable cells, % of control",Call
TAFA4 (TAFA chemokine like family member 4),1,-0.403,73.9,-1.13,111,inactive
TAFA4 (TAFA chemokine like family member 4),2,0.716,96.1,0.734,88.5,inactive
TAFA4 (TAFA chemokine like family member 4),3,0.635,94.5,0.46,93.6,inactive
TMEM219 (transmembrane protein 219),1,0.463,91.1,-0.134,105,inactive
TMEM219 (transmembrane protein 219),2,0.524,92.3,0.518,90,inactive
TMEM219 (transmembrane protein 219),3,-0.422,73.5,-0.129,84.9,inactive
BCAM (basal cell adhesion molecule (Lutheran blood group)),1,0.66,95,0.207,101,inactive
BCAM (basal cell adhesion molecule (Lutheran blood group)),2,-1.13,59.4,0.752,54.5,inactive
BCAM (basal cell adhesion molecule (Lutheran blood group)),3,0.782,97.4,1.2,79.4,inactive
XAGE5 (X antigen family member 5),1,0.736,96.5,0.158,103,inactive
XAGE5 (X antigen family member 5),2,2.24,126,1.56,93.7,inactive
XAGE5 (X antigen family member 5),3,1.34,109,0.847,97,inactive
UCN (urocortin),1,-0.349,74.9,0.0132,83.5,inactive
UCN (urocortin),2,-0.843,65.1,0.447,64.7,inactive
UCN (urocortin),3,-1.27,56.7,-1.33,89.9,inactive
S100A7P3 (S100 calcium binding protein A7 pseudogene 3),1,-1.27,56.7,-1.09,84.4,inactive
S100A7P3 (S100 calcium binding protein A7 pseudogene 3),2,0.49,91.6,-0.107,105,inactive
S100A7P3 (S100 calcium binding protein A7 pseudogene 3),3,-2.42,33.7,-3.13,85.8,inactive
LOC729722 (retired record),1,0.315,88.1,0.027,97.8,inactive
LOC729722 (retired record),2,-1.29,56.1,-0.0328,63.3,inactive
LOC729722 (retired record),3,3.44,150,3.11,74.1,active
CMBL (carboxymethylenebutenolidase homolog),1,-1.2,58,-1.17,88.3,inactive
CMBL (carboxymethylenebutenolidase homolog),2,-0.361,74.7,-0.939,107,inactive
CMBL (carboxymethylenebutenolidase homolog),3,-0.881,64.4,-1.09,95.8,inactive
FAAP24 (FA core complex associated protein 24),1,0.45,90.8,0.506,88.9,inactive
FAAP24 (FA core complex associated protein 24),2,-0.427,73.4,-0.817,102,inactive
FAAP24 (FA core complex associated protein 24),3,-0.0377,81.1,-0.188,95.3,inactive
PPTC7 (protein phosphatase targeting COQ7),1,-0.231,77.3,-1.12,116,inactive
PPTC7 (protein phosphatase targeting COQ7),2,-0.894,64.1,-0.148,74.5,inactive
PPTC7 (protein phosphatase targeting COQ7),3,0.652,94.9,0.63,89.8,inactive
MAP4K1 (mitogen-activated protein kinase kinase kinase kinase 1),1,-0.73,67.4,-0.776,92.4,inactive
MAP4K1 (mitogen-activated protein kinase kinase kinase kinase 1),2,-1.75,47.2,-0.619,62,inactive
MAP4K1 (mitogen-activated protein kinase kinase kinase kinase 1),3,1.03,102,0.604,97.5,inactive
TRIM13 (tripartite motif containing 13),1,-0.000591,81.9,0.029,90.8,inactive
TRIM13 (tripartite motif containing 13),2,1.74,116,0.879,103,inactive
TRIM13 (tripartite motif containing 13),3,-0.0846,80.2,0.231,84.3,inactive
CUEDC1 (CUE domain containing 1),1,-1.71,47.8,-1.79,85.7,inactive
CUEDC1 (CUE domain containing 1),2,-1.18,58.4,-1.41,94.6,inactive
CUEDC1 (CUE domain containing 1),3,-0.149,78.9,-0.135,91.4,inactive
NSUN7 (NOP2/Sun RNA methyltransferase family member 7),1,-0.24,77.1,-1.07,114,inactive
NSUN7 (NOP2/Sun RNA methyltransferase family member 7),2,0.401,89.9,-0.00873,101,inactive
NSUN7 (NOP2/Sun RNA methyltransferase family member 7),3,-0.0276,81.3,-0.0187,91.3,inactive
MTREX (Mtr4 exosome RNA helicase),1,-0.731,67.3,-0.186,79,inactive
MTREX (Mtr4 exosome RNA helicase),2,-0.835,65.3,-0.823,90.6,inactive
MTREX (Mtr4 exosome RNA helicase),3,-1.04,61.2,-1.02,89.6,inactive
ZNF70 (zinc finger protein 70),1,-0.405,73.8,-0.401,91.7,inactive
ZNF70 (zinc finger protein 70),2,0.294,87.7,2.15,55.6,inactive
ZNF70 (zinc finger protein 70),3,-0.303,75.9,0.163,81.2,inactive
MFNG (MFNG O-fucosylpeptide 3-beta-N-acetylglucosaminyltransferase),1,-0.0227,81.4,0.885,72.1,inactive
MFNG (MFNG O-fucosylpeptide 3-beta-N-acetylglucosaminyltransferase),2,0.0908,83.7,-0.0732,95.3,inactive
MFNG (MFNG O-fucosylpeptide 3-beta-N-acetylglucosaminyltransferase),3,-0.793,66.1,-1.27,103,inactive
"PLAUR (plasminogen activator, urokinase receptor)",1,-0.407,73.8,-0.325,89.8,inactive
"PLAUR (plasminogen activator, urokinase receptor)",2,0.551,92.8,0.509,90.7,inactive
"PLAUR (plasminogen activator, urokinase receptor)",3,2.94,140,2.12,89.8,inactive
SOCS2-AS1 (SOCS2 antisense RNA 1),1,-1.58,50.5,-0.237,60,inactive
SOCS2-AS1 (SOCS2 antisense RNA 1),2,0.0739,83.4,1.55,62,inactive
SOCS2-AS1 (SOCS2 antisense RNA 1),3,0.471,91.3,0.541,88.4,inactive

Copied from the list:
Value of MAP4K1 (mitogen-activated protein kinase kinase kinase kinase 1) #1 in “Call”: inactive
Value for LOC729722 (retired record) #2 in “total luciferase, % of control”: 56.1
For “total luciferase, % of control”, TRIM13 (tripartite motif containing 13) #2 shows 116
